Consider 3 sequences from article PMC3968096.

Chains of the proteins cited; added tags and fusions are not shown. A line that says so, or that is headed by a name, gives the form on record, which may keep a tag or linker.
VEGF165 yeast-displayed (human), one chain, as listed by the source: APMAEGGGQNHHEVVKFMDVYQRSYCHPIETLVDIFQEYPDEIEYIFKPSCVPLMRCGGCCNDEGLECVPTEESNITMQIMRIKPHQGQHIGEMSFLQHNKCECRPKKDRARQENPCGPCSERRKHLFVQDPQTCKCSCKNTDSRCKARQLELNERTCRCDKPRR
VEGF110 yeast-displayed del137-191 (human), one chain, as listed by the source: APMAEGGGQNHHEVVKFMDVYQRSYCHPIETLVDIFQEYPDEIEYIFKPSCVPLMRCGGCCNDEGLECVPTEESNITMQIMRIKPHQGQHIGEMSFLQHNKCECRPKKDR

Construct, isoform or probe ends are uncertain for at least one entry. Where cells or extracts were used, other partners may take part. For part of these data: No signal at the amounts used counts as a negative.

Data set [1] has as its system VEGF165 yeast-displayed (human). Description: flow cytometry, yeast display. To be noted: Kd in close agreement with F-EMSA; 10 mM HEPES pH 7.9, 125 mM NaCl, 25 mM KCl, 1 mM MgCl2; F-EMSA at room temperature for 2 h, 5% PAGE at 4 C; flow cytometry in the same buffer; protein on the cell surface; residues 27-191; protein details: Aga2 fusion, HA, c-myc; label: 5' fluorescein (F-EMSA), 5' biotin (flow); folded or branched DNA.

The subject of data set [2] is VEGF110 yeast-displayed del137-191 (human). As to the kind of experiment: flow cytometry, yeast display. As to conditions: 10 mM HEPES pH 7.9, 125 mM NaCl, 25 mM KCl, 1 mM MgCl2; F-EMSA at room temperature for 2 h, 5% PAGE at 4 C; flow cytometry in the same buffer; protein on the cell surface; residues 27-136; protein details: Aga2 fusion, HA, c-myc; label: 5' fluorescein (F-EMSA), 5' biotin (flow); folded or branched DNA. (A flow cytometer gives signals particle by particle.)

In data set [3] the test system is VEGF165 yeast-displayed (human). Description: competition, flow cytometry. As to conditions: 100 nM heparin post-incubation, not reduced; 10 mM HEPES pH 7.9, 125 mM NaCl, 25 mM KCl, 1 mM MgCl2; F-EMSA at room temperature for 2 h, 5% PAGE at 4 C; flow cytometry in the same buffer; protein on the cell surface; residues 27-191; protein details: Aga2 fusion, HA, c-myc; label: 5' fluorescein (F-EMSA), 5' biotin (flow); folded or branched DNA. (Mobility shift assays separate free from complexed probe on a gel.)

As for “TCTAGCCCACTGCATAGAGGTAGCCACGTATGTGGGTGTTACCCATTCGTAGCTACCGGTG [hVap1_T1979]”, the binding result was “binds” in data set [1], “no binding” in data set [2] and “binds” in data set [3].

In the case of “TCTAGCCCACTGCATAGAGGTAGCCACGTATGTTCGTGGCTACCGGTG [hVap1_Stem]”, the binding result was “binds” in data set [1], “no binding” in data set [2] and “binds” in data set [3].

For the sequence “TCTAGCCCACTGCATAGAGGTAGCTACCGGTG [hVap1_SST]”, the binding result in data set [1] is given as “binds”; in data set [2], “no binding”; in data set [3] it was “binds”.
